Experimental data from PMC3063334.
No constants are given. Whether binding was seen depends on the method and setting. In cells and extracts the contact can be indirect. Some entries that bind do so weakly or less than the wild type.

Sequences of proteins named here, by UniProt entry; tags and fusion partners are left off. Residues count along the entry.
UniProt P58281, residues 88-960: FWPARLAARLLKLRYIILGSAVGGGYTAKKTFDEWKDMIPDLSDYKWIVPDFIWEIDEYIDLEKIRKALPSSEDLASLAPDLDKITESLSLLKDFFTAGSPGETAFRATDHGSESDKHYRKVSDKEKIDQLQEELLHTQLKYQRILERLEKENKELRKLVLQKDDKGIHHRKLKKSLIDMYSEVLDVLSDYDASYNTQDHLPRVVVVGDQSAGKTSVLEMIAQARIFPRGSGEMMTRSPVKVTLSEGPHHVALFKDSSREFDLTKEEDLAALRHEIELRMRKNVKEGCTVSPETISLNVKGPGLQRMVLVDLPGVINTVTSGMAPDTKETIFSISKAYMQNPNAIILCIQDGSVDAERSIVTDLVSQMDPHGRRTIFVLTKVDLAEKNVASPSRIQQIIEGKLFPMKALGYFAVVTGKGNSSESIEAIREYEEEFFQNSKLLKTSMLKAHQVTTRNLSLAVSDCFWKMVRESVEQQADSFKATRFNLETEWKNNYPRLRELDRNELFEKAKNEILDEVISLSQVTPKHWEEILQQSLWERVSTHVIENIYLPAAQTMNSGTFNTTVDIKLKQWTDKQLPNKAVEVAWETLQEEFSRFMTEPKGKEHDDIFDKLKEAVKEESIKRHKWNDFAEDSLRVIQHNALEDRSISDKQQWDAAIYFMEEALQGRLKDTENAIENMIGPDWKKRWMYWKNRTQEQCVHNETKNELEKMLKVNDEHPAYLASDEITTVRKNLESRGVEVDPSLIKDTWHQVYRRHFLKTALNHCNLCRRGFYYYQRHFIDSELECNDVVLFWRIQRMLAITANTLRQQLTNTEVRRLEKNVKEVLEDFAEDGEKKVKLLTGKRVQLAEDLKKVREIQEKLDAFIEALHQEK

Molecular target: endogenous OPA1 (mouse brain) (mouse (endogenous in C57/Bl6 brain)) (UniProt P58281)
Experiment: co-IP; C57/Bl6 mouse brain hemisphere homogenate (50 mM Tris pH 7.5, 1% NP-40, 2 mM EDTA, 100 mM NaCl) incubated overnight at 4 °C with anti-OPA1 on protein G agarose or protein G agarose alone, Western blot for Omi/HtrA2

- binding: binds
B1: endogenous Omi/HtrA2 (mouse brain) (enzyme, UniProt Q9JIY5 134-458)
chain: AVPAPPPTSPRSQYNFIADVVEKTAPAVVYIEILDRHPFSGREVPISNGSGFVVASDGLIVTNAHVVADRRRVRVRLPSGDTYEAMVTAVDPVADIATLRIQTKEPLPTLPLGRSADVRQGEFVVAMGSPFALQNTITSGIVSSAQRPARDLGLPQNNVEYIQTDAAIDFGNSGGPLVNLDGEVIGVNTMKVTAGISFAIPSDRLREFLHRGEKKNSWFGTSGSQRRYIGVMMLTLTPSILIELQLREPSFPDVQHGVLIHKVILGSPAHRAGLRPGDVILAIGEKLAQNAEDVYEAVRTQSQLAVRIRRGSETLTLYVTPEVTE
